From patent publication US12391701B2, “Chromene-based compounds, methods and uses thereof” (University of Minho, priority 2019, dated 2025)

What was measured:
[1] = system: renal carcinoma cell line A498; assay: Cell viability (sulforhodamine B), A498; format: cell-based; details: selectivity index
Protocol: (§1) In an embodiment, the antiproliferative activity of the compounds was further determined against renal carcinoma cell lines and non-neoplastic kidney cell line.
(§2) In an embodiment, three human breast cancer cell lines Hs578T, MDA-MB-468 and MCF-7, and a normal breast cell line MCF-10A, were obtained from ATCC (American Type Culture Collection). The cancer cell lines were cultured in Dulbecco's modified Eagle medium, 4.5 g/l glucose (DMEM, Gibco) supplemented with 10% heating inactivated Fetal Bovine Serum (FBS, Gibco) and 1% antibiotic solution (Penicillin-Streptomycin, Gibco). The normal cell line was cultured in Dulbecco's Modified Eagle Medium: Nutrient Mixture F-12 (DMEM/F12, Gibco) supplemented with 5% heating inactivated FBS (Gibco), 1% antibiotic solution (Penicillin-Streptomycin, Gibco), 1% steroid hormone (Hydrocortisone, Sigma-Aldrich), 0.1% peptide hormone (Insulin, Sigma-Aldrich) and 0.01% protein complex (Cholera Toxin, Gibco). Two distinct human acute myeloid leukemia (AML) cell lines, HL-60 (FAB M2) and KG-1 (erythroleukemia-FAB M6), and one human lymphoblastic leukemia (ALL) cell line, Jurkat (T cell type), were also used. These three cell lines were obtained from German Collection of Microorganisms and Cell cultures (DMSZ®, Deutsche Sammlung von Mikroorganismen and Zellkulturen in German). Cells were cultured in RPMI 1640 medium (Biochrom®-Merck Millipore) supplemented with 10% heating inactivated FBS (Biochrom®-Merck Millipore) and 1% antibiotic/antimitotic mixture (Invitrogen®). Three human glioblastoma (GBM) cell line models, two established and commercially available cell lines (U87MG and GAMG, kind gift from Rui M. Reis) and one primary GBM culture (GLIB) were also used. GBM cells were cultures in DMEM (Biochrom-Merck Millipore), all supplemented with 10% FBS. The Renal cell carcinoma cell lines A498, 786-O, Caki-2 and HK2 were obtained from ATCC. The cancer cell line A498 was cultured in MEM medium (Biochrom®-Merck Millipore), 786-O was cultured in RPMI 1640 medium (Biochrom®-Merck Millipore), Caki-2 was cultured in Mc Coys medium (Biochrom®-Merck Millipore) and HK2 was cultured in RPMI 1640 medium (Biochrom®-Merck Millipore). All the media were supplemented with 10% heat inactivated FBS (Biochrom®-Merck Millipore) and 1% antibiotic/antimitotic mixture (Invitrogen®). All cells were grown in a humidified incubator at 37° C. and 5% CO2. For all assays, DMSO (Dimethyl Sulfoxide, Sigma-Aldrich) controls were used.
(§3) In an embodiment, cell viability assays were performed. MCF-7, Hs578T and MCF-10A cells were plated in triplicate in 96-multiwell culture plates, at 3000 cells per mL, or 5000 cells per mL for MDA-MB-468 (100 μL/well). The cells were then allowed to adhere in complete medium, over a period of 18-20 hours. Cells were subsequently treated with 7 different concentrations (from 0.1 to 40 μM or 5 to 60 μM) of compounds or control in fresh medium. HL-60, KG-1 and Jurkat cell lines were plated in 96-multiwell culture plates at 50.000 cells/100 μL per well and treated with different concentrations (from 0.001 to 2 μM) of the compounds described (or control). Cells were plated, in triplicate, at an initial density of 2000 cells/well for GAMG, 4000 cells/well for GL18 and 6000 cells/well for U87MG, in 96-well plates, and allowed to adhere for 18-20 hours. Cells were then treated with different concentrations of the compounds (0.005 to 100 μM) or with control. A498 and 786-O cells were plated at 2000 cells per mL, Caki-2 cells were plated at 3000 cells per mL and HK2 cells were plated at 2000 cells per mL in triplicate, in 96-multiwell culture plates (100 μL/well), and allowed to adhere over a period of 18-20 hours in complete medium. The cells were then treated with 7 different concentrations (from 0.1 to 40 μM or 5 to 60 μM) of compounds or control in fresh medium. […]

[2] = system: renal carcinoma cell line Caki-2; assay: Cell viability (sulforhodamine B), Caki-2; format: cell-based; details: selectivity index
Protocol: as §1, §2, §3

[3] = system: renal carcinoma cell line 786-O; assay: Cell viability (sulforhodamine B), 786-O; format: cell-based; details: selectivity index
Protocol: as §1, §2, §3

[4] = system: TNBC cell line MDA-MB-468; assay: Cell viability assay (MTS), MDA-MB-468; format: cell-based, human; details: selectivity index
Description: (§4) In an embodiment, for a comparison study, monomers and respective dimers were selected and further evaluated in Hs578t and MDA-MB-468 breast cell lines. […] These cell lines correspond to the basal-like subtype of breast cancer, included in the known triple negative subtype, since they are negative for Estrogen receptor (ER), progesterone receptor (PR) and Human epidermal growth factor receptor 2 (HER2) molecular markers. The clinical behaviour of these breast cancer subtype is very aggressive and there is still no specific molecular therapy available.
as §2, with “For all assays, DMSO (Dimethyl Sulfoxide, Sigma-Aldrich) controls were used.” left out

[5] = system: TNBC cell line MDA-MB-231; assay: Cell viability assay, MDA-MB-231; format: cell-based; details: selectivity index
[6] = system: breast cancer cell line MCF-7; assay: Cell viability assay (MTS), MCF-7; format: cell-based, human; details: selectivity index MCF-10A vs MCF-7; SI=(IC50 normal−IC50 cancer)/IC50 cancer
Protocol: In an embodiment, the cell growth inhibition and IC50 values of the synthesised and isolated chromene-based compounds were determined as part of the evaluation of the antiproliferative activity of the isolated agents. A complete study on the structure-activity relationship was performed for all the synthesised compounds. The antiproliferative activity against MCF-7 breast cancer cell lines were analysed. […] The non-neoplastic cell line MCF-10A was also used to determine the selectivity of the compounds for the tumour cells. For compounds with an IC50 value (concentration required to reduce cell viability by 50%) higher than 20 μM, the IC50 value was not determined. Selectivity index (SI) was calculated in order to evaluate the cytotoxicity of the tested compounds.
as §2
In an embodiment, cell viability assays were performed. MCF-7, Hs578T and MCF-10A cells were plated in triplicate in 96-multiwell culture plates, at 3000 cells […], or 5000 cells […] for MDA-MB-468 (100 μL/well). The cells were then allowed to adhere in complete medium, over a period of 18-20 hours. Cells were subsequently treated with 7 different concentrations (from 0.1 to 40 μM or 5 to 60 μM) of compounds or control in fresh medium. HL-60, KG-1 and Jurkat cell lines were plated in 96-multiwell culture plates at 50.000 cells/100 μL per well and treated with different concentrations (from 0.001 to 2 μM) of the compounds described (or control). Cells were plated, in triplicate, at an initial density of 2000 cells/well for GAMG, 4000 cells/well for GL18 and 6000 cells/well for U87MG, in 96-well plates, and allowed to adhere for 18-20 hours. […]

TNBC cell line Hs578t = assay: Cell viability assay (MTS), Hs578t; format: cell-based, human; details: selectivity index
Description: as §4, §2
In an embodiment, cell viability assays were performed. MCF-7, Hs578T and MCF-10A cells were plated in triplicate in 96-multiwell culture plates, at 3000 cells […], or 5000 cells […] for MDA-MB-468 (100 μL/well). The cells were then allowed to adhere in complete medium, over a period of 18-20 hours. Cells were subsequently treated with 7 different concentrations (from 0.1 to 40 μM or 5 to 60 μM) of compounds or control in fresh medium. HL-60, KG-1 and Jurkat cell lines were plated in 96-multiwell culture plates at 50.000 cells/100 μL per well and treated with different concentrations (from 0.001 to 2 μM) of the compounds described (or control). Cells were plated, in triplicate, at an initial density of 2000 cells/well for GAMG, 4000 cells/well for GL18 and 6000 cells/well for U87MG, in 96-well plates, and allowed to adhere for 18-20 hours. Cells were then treated with different concentrations of the compounds (0.005 to 100 μM) or with control. […]

| SMILES | SI HK2 vs A498 [1] | SI HK2 vs Caki-2 [2] | SI HK2 vs 786-O [3] | SI MDA-MB-468 vs MCF-10A [4] | SI MDA-MB-231 vs MCF-10A [5] | SI [6] | SI Hs578t vs MCF-10A (TNBC cell line Hs578t) |
| --- | --- | --- | --- | --- | --- | --- | --- |
| COc1cccc2c1Oc1nc(-c3ccc(Br)cc3)[nH]c1C2 [MC408, 2-(4-bromophenyl)-5-methoxy-3,9-dihydrochromeno[2,3-d]imidazoles] | 24.00 | 38.29 | 53.59 | 109.7 | 0.2 | 3.8 | 62.6 |
| COc1cccc2c1Oc1nc(-c3ccc(F)cc3)[nH]c1C2 [MC409, 2-(4-fluorophenyl)-5-methoxy-3,9-dihydrochromeno[2,3-d]imidazoles] | 5.23 | 8.70 | 6.04 | 118.0 | 4.3 | 21.0 | 51.8 |
| COc1cccc2c1Oc1nc(-c3ccc(Br)cc3)[nH]c1C2C1c2cccc(OC)c2Oc2nc(-c3ccc(Br)cc3)[nH]c21 (stereo not drawn) [MC421, 2,2′-bis(4-bromophenyl)-5,5′-dimethoxy-1,1,9,9′-tetrahydro-9,9′-bichromeno[2,3-]imidazoles] | 6.36 | 4.78 | 31.33 | >67 | >9 | >96 | >850 |
